# Values quoted from earlier work in patent publication US8101714B2, “Teleost derived antimicrobial polypeptides” (The University of Georgia Research Foundation, Inc., priority 2004, dated 2012).
# Some entries share one result that the patent states for a list of compounds.
# Tested on: NCC
# Conditions: cited from earlier work
row,Substance,competition of total dG20 binding
1,dextran sulfate,40-50%
2,polyvinyl sulfate,40-50%
